Data taken from patent publication US20030215451A1.
These are yes or no findings as the source states them, for the method shown. Binding seen in cells or lysates may run through a third protein. Some results given as binding are weak or reduced against the parent protein; the word gives no strength.

Sequences of proteins named here, by UniProt entry; tags and fusion partners are left off. Residues count along the entry.
UniProt Q02763, residues 23-1124: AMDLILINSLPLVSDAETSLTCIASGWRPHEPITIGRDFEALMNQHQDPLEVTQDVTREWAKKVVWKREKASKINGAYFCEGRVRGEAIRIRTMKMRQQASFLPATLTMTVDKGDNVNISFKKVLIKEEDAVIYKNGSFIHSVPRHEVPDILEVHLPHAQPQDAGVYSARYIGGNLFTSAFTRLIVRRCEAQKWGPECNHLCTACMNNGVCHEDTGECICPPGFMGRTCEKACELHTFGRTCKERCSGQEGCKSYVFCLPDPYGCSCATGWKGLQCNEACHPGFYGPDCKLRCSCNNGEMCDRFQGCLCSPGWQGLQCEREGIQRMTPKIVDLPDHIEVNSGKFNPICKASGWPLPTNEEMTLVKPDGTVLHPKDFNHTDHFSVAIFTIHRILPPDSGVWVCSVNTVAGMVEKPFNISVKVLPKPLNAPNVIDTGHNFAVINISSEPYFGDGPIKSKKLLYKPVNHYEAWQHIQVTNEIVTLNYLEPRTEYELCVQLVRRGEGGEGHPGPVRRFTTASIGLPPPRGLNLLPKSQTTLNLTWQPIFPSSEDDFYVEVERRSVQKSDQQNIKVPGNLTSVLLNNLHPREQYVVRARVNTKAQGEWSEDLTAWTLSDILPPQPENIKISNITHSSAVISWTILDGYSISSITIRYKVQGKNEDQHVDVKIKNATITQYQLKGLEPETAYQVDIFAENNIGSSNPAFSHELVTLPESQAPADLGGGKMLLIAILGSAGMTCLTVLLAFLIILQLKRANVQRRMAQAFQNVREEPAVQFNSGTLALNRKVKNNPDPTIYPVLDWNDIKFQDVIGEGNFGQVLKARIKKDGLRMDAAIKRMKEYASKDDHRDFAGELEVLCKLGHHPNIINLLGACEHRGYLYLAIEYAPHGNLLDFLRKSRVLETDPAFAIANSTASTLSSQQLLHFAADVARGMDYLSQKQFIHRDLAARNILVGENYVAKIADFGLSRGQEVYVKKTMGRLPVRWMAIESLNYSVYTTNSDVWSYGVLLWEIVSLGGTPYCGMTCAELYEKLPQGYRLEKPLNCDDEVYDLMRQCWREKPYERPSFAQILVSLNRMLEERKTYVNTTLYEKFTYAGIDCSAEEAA
UniProt O15123, residues 19-496: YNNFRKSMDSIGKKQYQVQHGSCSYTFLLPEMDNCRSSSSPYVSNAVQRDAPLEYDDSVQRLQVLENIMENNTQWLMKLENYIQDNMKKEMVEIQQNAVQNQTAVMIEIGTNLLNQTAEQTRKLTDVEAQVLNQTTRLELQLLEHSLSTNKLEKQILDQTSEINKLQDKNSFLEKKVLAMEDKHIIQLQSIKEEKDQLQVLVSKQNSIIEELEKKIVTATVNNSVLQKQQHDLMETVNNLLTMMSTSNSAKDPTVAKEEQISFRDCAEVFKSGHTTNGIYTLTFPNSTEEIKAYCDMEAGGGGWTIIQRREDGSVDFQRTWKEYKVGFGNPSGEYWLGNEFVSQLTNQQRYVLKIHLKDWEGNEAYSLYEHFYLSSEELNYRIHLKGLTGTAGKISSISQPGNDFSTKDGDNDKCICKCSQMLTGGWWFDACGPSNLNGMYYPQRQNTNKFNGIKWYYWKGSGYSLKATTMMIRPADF

Target: Tie2 receptor (full length receptor construct) (UniProt Q02763)
Test: co-immunoprecipitation from co-transfected 293 cells: anti-Tie2 IP, anti-gD immunoblot

## epitope (gD)-tagged angiopoietin 2 (from UniProt O15123 19-496) (ligand)
  binding: binds
